From PubChem BioAssay AID282 (DTP/NCI, 2004)
The list is a part of this screen's results and no random one: its compounds were picked by chemical class. Not every dose and run of a compound is shown. T/C gives the treated animals as a percentage of the vehicle group. Some doses have a count of surviving animals in place of a T/C: the source holds a T/C of zero for them, seemingly a mark for toxic or unscored doses. Some survivor counts are full or nearly so, which does not show that the dose was tolerated: the source hardly ever lists a survival T/C far under the control, and the zero likely stands for such cases as well. Survivors were counted at the toxicity check, usually on the fifth day, unless a day is given; later deaths do not show. Schedules are NCI's codes, taken here to give the interval after Q, in days (D) or hours (H), and the number of doses after X. Some schedule codes hold Z or #, which are not explained here. Some entries were tested several times; the values are given in rising order. Where survival is the endpoint, the PubChem record calls one and a half times the control and up active, and a quarter to a half above the control has no call in these data; cut-offs in other NCI protocols can differ.

Tested on: BDF1 mice, L1210 terephthalanilide-resistant leukemia ip, survival T/C
Assay: NCI In Vivo Anticancer Drug Screen. Data for tumor model L1210 Leukemia resistant to A Terephthalanilide; NSC 38280 (intraperitoneal) in B6D2F1 (BDF1) mice
Conditions: T/C endpoint: mean survival time, higher T/C = longer survival
Description: The antitumor activity of compounds was measured in mice bearing transplantable tumors. Survival or tumor size were measured and the results are expressed as the measurement made in the treated group (T) divided by the measurement made in the vehicle treated control group (C). The tumor model used in this assay is L1210 Leukemia resistant to A Terephthalanilide; NSC 38280 (intraperitoneal) in B6D2F1 (BDF1) mice

With `NC1CCCCC1.O=P(O)(N(CCCl)CCCl)N1CC1` the T/C (dose: 1.25 mg/kg/injection, schedule: Q01DX010 (ip), vehicle: saline) was 101 % of control, the T/C (dose: 2.5 mg/kg/injection, schedule: Q01DX010 (ip), vehicle: saline) was 109 and 160 % of control and the T/C (dose: 5.0 mg/kg/injection, schedule: Q01DX010 (ip), vehicle: saline) was 125 and 177 % of control. The T/C (dose: 10.0 mg/kg/injection, schedule: Q01DX010 (ip), vehicle: saline) was 100 and 150 % of control and the survivor count (dose: 20.0 mg/kg/injection, schedule: Q01DX010 (ip), vehicle: saline) was 6 of 6.
With `CN(N=O)C(=N)N[N+](=O)[O-]` the T/C (dose: 8.0 mg/kg/injection, schedule: Q01DX010 (ip), vehicle: saline) was 122 and 135 % of control, the T/C (dose: 16.0 mg/kg/injection, schedule: Q01DX010 (ip), vehicle: saline) was 102 and 126 % of control and the survivor count (dose: 32.0 mg/kg/injection, schedule: Q01DX010 (ip), vehicle: saline) was 6 of 6. The survivor count (dose: 64.0 mg/kg/injection, schedule: Q01DX010 (ip), vehicle: saline) was 1 of 6 and 6 of 6.
For `Cc1[nH]c(=O)[nH]c(=O)c1N(CCCl)CCCl`, the T/C (dose: 0.25 mg/kg/injection, schedule: Q01DX010 (ip), vehicle: saline) was 108 % of control, the T/C (dose: 0.5 mg/kg/injection, schedule: Q01DX010 (ip), vehicle: saline) was 104 % of control and the T/C (dose: 1.0 mg/kg/injection, schedule: Q01DX010 (ip), vehicle: saline) was 123 % of control. For the same compound, the survivor count (dose: 2.0 mg/kg/injection, schedule: Q01DX010 (ip), vehicle: saline) was 6 of 6, the T/C (dose: 7.5 mg/kg/injection, schedule: Q01DX Z (ip), vehicle: alkali diluted with saline) was 119 % of control and the T/C (dose: 10.0 mg/kg/injection, schedule: Q01DX Z (ip), vehicle: alkali diluted with saline) was 133 % of control. The survivor count (dose: 15.0 mg/kg/injection, schedule: Q01DX Z (ip), vehicle: alkali diluted with saline) was 6 of 6 and the survivor count (dose: 20.0 mg/kg/injection, schedule: Q01DX Z (ip), vehicle: alkali diluted with saline) was 6 of 6.
